Test results taken from the supplement of paper PMC7666118.
This is one part of the list.

By UniProt entry, the sequences of proteins in these tests, tags left out. Where a name states a change or a piece, a line headed by the entry shows the natural chain unless it says otherwise.
UniProt Q96IJ6: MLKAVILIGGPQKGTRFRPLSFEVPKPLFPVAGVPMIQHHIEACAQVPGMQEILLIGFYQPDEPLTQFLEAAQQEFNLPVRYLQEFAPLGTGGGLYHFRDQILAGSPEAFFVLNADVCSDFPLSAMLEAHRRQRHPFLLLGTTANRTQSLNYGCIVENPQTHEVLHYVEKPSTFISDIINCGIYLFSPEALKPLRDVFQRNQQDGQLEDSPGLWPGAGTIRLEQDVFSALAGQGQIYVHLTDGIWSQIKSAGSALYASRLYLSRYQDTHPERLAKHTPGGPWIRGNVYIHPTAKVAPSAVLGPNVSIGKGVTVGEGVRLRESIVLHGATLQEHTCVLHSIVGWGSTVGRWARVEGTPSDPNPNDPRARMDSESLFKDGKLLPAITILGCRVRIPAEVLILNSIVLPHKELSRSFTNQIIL
UniProt Q9NZC3: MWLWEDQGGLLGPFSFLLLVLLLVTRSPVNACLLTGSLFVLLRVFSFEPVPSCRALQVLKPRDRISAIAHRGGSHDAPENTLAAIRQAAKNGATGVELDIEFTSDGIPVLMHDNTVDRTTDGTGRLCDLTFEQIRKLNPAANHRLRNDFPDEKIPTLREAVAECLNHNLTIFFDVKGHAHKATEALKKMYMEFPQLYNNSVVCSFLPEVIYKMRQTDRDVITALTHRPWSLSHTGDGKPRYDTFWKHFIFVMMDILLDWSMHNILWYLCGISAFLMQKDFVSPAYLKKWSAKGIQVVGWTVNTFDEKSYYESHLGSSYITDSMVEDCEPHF
UniProt P40939: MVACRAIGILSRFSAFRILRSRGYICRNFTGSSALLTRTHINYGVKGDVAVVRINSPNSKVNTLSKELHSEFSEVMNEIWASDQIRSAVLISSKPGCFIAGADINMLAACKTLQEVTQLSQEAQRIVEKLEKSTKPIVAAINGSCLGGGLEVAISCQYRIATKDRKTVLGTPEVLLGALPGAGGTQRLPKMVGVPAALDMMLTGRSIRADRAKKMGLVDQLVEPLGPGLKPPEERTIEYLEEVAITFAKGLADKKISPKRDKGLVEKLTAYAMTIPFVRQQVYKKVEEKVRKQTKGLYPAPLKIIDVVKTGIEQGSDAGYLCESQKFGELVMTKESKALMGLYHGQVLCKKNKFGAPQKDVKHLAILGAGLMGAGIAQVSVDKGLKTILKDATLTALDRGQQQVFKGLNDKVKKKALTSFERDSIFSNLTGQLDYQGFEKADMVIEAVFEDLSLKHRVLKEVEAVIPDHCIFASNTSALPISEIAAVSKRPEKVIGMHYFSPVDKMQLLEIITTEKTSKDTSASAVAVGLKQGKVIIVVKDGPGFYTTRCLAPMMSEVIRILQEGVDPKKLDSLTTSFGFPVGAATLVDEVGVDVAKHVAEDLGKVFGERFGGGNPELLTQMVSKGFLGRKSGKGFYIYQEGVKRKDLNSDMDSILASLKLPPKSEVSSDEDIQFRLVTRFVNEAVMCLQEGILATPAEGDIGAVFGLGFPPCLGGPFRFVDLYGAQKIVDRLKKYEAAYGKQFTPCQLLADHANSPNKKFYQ
UniProt Q8NBJ4: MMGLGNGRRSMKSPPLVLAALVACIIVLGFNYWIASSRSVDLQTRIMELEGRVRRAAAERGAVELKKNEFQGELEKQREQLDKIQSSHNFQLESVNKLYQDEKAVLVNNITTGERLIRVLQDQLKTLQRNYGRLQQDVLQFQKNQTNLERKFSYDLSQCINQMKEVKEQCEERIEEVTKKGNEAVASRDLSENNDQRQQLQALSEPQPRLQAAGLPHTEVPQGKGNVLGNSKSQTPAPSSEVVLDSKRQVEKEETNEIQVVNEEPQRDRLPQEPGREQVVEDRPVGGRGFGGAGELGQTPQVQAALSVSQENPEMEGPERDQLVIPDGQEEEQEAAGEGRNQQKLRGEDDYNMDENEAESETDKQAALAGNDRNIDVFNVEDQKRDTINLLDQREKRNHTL
UniProt Q6Y7W6: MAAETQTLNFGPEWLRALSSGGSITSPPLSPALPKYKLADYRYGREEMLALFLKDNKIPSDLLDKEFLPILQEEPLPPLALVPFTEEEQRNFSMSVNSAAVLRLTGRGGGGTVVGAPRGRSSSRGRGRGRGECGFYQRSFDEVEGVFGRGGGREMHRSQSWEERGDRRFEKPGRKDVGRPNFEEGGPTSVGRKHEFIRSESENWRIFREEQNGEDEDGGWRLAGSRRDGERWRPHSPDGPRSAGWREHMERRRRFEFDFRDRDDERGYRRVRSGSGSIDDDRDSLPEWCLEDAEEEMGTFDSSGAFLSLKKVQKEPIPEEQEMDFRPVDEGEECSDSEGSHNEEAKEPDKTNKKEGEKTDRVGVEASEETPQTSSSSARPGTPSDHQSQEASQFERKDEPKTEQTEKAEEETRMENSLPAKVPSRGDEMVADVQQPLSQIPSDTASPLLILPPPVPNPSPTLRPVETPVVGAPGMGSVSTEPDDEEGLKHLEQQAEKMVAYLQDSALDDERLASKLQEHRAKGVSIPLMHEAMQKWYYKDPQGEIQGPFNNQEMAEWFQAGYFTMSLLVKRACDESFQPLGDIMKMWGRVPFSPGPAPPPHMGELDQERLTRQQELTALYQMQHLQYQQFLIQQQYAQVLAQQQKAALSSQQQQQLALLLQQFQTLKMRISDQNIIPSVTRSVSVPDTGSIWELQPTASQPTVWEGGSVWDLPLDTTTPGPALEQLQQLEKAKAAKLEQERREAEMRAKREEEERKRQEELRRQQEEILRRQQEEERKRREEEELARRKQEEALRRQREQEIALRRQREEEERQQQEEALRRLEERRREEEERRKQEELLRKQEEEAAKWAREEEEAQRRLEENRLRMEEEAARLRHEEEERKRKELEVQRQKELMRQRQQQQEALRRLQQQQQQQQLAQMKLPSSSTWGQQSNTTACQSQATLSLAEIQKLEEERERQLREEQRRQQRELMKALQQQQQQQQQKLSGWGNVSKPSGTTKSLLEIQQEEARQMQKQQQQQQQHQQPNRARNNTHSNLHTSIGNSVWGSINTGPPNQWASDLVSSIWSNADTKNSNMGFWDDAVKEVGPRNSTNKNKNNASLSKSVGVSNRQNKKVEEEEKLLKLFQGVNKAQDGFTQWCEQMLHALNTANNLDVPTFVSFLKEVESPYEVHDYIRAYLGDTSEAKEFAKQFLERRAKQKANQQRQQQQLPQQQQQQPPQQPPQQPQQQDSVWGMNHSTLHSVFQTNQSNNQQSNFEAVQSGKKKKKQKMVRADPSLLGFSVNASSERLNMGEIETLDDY
UniProt Q8IWK6: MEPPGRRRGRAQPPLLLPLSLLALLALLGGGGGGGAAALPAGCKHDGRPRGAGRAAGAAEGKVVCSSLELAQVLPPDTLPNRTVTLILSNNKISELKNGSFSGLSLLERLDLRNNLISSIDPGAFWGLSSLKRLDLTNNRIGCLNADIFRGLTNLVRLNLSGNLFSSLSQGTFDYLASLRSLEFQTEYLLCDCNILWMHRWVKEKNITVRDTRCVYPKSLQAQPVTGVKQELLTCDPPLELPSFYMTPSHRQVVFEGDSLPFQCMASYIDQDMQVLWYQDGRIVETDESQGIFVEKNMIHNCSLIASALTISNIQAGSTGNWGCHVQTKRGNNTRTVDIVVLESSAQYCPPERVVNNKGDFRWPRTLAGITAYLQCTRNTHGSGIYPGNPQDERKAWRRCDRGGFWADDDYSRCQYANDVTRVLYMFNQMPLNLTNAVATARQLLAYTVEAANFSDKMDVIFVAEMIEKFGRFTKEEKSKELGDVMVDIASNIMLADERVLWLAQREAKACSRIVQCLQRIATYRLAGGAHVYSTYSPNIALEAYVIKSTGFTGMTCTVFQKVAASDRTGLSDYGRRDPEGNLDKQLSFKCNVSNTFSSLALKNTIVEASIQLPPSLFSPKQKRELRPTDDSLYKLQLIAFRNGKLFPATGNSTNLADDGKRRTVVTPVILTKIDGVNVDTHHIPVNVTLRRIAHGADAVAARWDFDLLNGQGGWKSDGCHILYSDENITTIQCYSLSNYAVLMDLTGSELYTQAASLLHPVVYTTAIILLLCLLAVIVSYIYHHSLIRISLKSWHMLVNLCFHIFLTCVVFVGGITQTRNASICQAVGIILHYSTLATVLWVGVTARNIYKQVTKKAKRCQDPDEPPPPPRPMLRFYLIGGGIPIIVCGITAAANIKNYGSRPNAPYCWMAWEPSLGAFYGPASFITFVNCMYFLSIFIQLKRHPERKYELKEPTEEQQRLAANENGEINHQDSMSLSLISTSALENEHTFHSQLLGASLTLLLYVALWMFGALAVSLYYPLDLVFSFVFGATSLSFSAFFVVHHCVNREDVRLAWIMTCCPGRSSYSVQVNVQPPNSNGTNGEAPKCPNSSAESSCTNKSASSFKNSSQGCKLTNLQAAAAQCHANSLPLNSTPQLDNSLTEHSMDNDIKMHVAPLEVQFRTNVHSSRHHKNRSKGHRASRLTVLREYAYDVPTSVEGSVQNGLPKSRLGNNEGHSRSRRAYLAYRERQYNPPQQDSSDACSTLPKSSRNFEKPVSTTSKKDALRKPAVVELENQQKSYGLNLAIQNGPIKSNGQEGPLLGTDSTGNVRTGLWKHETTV
UniProt Q14691: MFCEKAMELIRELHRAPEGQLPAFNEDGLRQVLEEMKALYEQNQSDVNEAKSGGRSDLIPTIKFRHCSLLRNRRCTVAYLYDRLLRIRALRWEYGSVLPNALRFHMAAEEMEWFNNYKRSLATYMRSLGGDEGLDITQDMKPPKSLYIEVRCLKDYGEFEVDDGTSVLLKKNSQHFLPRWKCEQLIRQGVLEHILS
UniProt Q9P107: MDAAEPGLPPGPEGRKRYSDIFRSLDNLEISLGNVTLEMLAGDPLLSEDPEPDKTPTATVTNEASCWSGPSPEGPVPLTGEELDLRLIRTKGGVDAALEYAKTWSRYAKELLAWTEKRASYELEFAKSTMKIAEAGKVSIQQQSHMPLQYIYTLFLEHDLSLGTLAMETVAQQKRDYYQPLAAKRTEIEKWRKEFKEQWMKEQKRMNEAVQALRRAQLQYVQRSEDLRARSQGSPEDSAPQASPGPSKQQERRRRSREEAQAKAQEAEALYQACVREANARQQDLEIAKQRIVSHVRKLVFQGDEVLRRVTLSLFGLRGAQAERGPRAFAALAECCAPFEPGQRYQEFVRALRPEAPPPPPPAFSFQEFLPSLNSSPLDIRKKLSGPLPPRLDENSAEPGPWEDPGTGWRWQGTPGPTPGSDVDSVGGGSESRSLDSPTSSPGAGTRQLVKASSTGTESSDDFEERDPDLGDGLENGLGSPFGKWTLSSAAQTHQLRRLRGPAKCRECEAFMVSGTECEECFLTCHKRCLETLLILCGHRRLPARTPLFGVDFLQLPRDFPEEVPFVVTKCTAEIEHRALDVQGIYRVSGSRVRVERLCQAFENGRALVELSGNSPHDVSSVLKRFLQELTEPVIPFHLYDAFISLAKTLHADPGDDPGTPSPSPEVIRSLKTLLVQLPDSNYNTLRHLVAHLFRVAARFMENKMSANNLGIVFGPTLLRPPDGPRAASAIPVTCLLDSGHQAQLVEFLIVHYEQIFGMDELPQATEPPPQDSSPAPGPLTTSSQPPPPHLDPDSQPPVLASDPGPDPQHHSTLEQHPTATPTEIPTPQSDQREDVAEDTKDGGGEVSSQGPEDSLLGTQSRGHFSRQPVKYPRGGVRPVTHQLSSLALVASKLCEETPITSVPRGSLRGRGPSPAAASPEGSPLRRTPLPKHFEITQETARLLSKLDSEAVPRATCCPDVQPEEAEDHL
UniProt P28799: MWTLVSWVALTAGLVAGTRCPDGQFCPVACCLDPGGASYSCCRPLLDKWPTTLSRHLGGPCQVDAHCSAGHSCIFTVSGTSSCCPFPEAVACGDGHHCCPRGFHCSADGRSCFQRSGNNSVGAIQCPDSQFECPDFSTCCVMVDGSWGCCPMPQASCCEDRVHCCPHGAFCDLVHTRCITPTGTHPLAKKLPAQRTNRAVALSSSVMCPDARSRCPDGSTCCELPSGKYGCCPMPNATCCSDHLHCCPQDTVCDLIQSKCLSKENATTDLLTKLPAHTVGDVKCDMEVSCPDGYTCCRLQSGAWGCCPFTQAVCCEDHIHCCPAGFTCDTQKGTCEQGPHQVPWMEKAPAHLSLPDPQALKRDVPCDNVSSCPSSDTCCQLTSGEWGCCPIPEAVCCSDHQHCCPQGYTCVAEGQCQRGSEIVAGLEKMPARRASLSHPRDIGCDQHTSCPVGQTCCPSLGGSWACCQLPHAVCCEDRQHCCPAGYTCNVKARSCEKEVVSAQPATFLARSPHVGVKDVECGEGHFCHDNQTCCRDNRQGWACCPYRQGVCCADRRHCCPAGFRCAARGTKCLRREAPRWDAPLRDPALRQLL
UniProt P53701: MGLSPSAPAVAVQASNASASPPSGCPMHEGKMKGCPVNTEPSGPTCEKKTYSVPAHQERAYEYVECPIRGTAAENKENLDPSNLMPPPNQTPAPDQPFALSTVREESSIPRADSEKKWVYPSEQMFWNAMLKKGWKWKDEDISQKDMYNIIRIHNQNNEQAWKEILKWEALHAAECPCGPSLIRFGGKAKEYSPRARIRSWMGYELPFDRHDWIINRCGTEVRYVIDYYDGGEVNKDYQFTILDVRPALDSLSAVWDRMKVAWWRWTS

Compound: COc1ccc(Cn2ccc3ccc(C(=O)NO)cc32)cc1
Assay: dose-dependent thermal stabilisation call (2D-TPP, DLPTP, 10% FDR) (binary (1 = stabilised)); higher = stabilised by the compound
Conditions: system: HL-60 intact cells; concentration range 0.04-10 µM

Row | Target | dose-dependent thermal stabilisation call
1 | HCLS1 (UniProt P14317) | inactive: 0
2 | GIT2 (UniProt Q14161) | inactive: 0
3 | GMPPA (UniProt Q96IJ6) | inactive: 0
4 | H3F3A (UniProt P84243) | inactive: 0
5 | GNPTAB (UniProt Q3T906) | inactive: 0
6 | GDE1 (UniProt Q9NZC3) | inactive: 0
7 | GNPNAT1 (UniProt Q96EK6) | inactive: 0
8 | GTPBP5 (UniProt Q9H4K7) | inactive: 0
9 | GNL3L (UniProt Q9NVN8) | inactive: 0
10 | GDPD1 (UniProt Q8N9F7) | inactive: 0
11 | GNB2L1 (UniProt P63244) | inactive: 0
12 | HLA-C (UniProt P10321) | inactive: 0
13 | HADHA (UniProt P40939) | active: 1
14 | GOLM1 (UniProt Q8NBJ4) | inactive: 0
15 | GOT2 (UniProt P00505) | inactive: 0
16 | GPS2 (UniProt Q13227) | inactive: 0
17 | GLUL (UniProt P15104) | inactive: 0
18 | HGS (UniProt O14964) | inactive: 0
19 | HCG_2004593 | inactive: 0

From entry 1 up to 2, copied from above:
Row | Target | dose-dependent thermal stabilisation call
1 | HCLS1 (UniProt P14317) | inactive: 0
2 | GIT2 (UniProt Q14161) | inactive: 0

More records follow.

Row | Target | dose-dependent thermal stabilisation call
20 | GTPBP1 (UniProt O00178) | inactive: 0
21 | HDHD3 (UniProt Q9BSH5) | inactive: 0
22 | GLCCI1 (UniProt Q86VQ1) | inactive: 0
23 | GLT25D2 (UniProt Q8IYK4) | inactive: 0
24 | GIGYF2 (UniProt Q6Y7W6) | inactive: 0
25 | GRWD1 (UniProt Q9BQ67) | inactive: 0
26 | HBB (UniProt P68871) | inactive: 0
27 | GPR89A (UniProt B7ZAQ6) | inactive: 0
28 | GPR125 (UniProt Q8IWK6) | inactive: 0
29 | GINS1 (UniProt Q14691) | inactive: 0
30 | GPATCH4 (UniProt Q5T3I0) | inactive: 0
31 | GLT8D1 (UniProt Q68CQ7) | inactive: 0
32 | GPD2 (UniProt P43304) | inactive: 0
33 | GMIP (UniProt Q9P107) | inactive: 0
34 | GHITM (UniProt Q9H3K2) | inactive: 0
35 | GORASP2 (UniProt Q9H8Y8) | inactive: 0
36 | GRN (UniProt P28799) | inactive: 0
37 | HCCS (UniProt P53701) | inactive: 0
